Paper doi:10.1101/2023.10.31.565004
No constants are given. Whether binding was seen depends on the method and setting. Binding seen in cells or lysates may run through a third protein. Some entries that bind do so weakly or less than the wild type.

Amino acid sequences for entries named in this document (tags omitted).
UniProt Q921F2: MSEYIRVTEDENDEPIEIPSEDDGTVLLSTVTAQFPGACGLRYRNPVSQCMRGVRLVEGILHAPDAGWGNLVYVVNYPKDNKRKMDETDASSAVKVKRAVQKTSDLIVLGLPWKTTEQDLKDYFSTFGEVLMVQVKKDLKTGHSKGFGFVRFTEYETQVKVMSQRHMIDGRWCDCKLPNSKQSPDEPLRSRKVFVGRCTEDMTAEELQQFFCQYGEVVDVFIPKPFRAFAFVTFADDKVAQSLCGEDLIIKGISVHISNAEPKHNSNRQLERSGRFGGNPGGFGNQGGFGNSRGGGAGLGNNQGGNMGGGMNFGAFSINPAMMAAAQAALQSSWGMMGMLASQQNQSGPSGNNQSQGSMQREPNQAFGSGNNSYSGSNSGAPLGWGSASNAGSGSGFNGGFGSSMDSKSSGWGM
UniProt P42859: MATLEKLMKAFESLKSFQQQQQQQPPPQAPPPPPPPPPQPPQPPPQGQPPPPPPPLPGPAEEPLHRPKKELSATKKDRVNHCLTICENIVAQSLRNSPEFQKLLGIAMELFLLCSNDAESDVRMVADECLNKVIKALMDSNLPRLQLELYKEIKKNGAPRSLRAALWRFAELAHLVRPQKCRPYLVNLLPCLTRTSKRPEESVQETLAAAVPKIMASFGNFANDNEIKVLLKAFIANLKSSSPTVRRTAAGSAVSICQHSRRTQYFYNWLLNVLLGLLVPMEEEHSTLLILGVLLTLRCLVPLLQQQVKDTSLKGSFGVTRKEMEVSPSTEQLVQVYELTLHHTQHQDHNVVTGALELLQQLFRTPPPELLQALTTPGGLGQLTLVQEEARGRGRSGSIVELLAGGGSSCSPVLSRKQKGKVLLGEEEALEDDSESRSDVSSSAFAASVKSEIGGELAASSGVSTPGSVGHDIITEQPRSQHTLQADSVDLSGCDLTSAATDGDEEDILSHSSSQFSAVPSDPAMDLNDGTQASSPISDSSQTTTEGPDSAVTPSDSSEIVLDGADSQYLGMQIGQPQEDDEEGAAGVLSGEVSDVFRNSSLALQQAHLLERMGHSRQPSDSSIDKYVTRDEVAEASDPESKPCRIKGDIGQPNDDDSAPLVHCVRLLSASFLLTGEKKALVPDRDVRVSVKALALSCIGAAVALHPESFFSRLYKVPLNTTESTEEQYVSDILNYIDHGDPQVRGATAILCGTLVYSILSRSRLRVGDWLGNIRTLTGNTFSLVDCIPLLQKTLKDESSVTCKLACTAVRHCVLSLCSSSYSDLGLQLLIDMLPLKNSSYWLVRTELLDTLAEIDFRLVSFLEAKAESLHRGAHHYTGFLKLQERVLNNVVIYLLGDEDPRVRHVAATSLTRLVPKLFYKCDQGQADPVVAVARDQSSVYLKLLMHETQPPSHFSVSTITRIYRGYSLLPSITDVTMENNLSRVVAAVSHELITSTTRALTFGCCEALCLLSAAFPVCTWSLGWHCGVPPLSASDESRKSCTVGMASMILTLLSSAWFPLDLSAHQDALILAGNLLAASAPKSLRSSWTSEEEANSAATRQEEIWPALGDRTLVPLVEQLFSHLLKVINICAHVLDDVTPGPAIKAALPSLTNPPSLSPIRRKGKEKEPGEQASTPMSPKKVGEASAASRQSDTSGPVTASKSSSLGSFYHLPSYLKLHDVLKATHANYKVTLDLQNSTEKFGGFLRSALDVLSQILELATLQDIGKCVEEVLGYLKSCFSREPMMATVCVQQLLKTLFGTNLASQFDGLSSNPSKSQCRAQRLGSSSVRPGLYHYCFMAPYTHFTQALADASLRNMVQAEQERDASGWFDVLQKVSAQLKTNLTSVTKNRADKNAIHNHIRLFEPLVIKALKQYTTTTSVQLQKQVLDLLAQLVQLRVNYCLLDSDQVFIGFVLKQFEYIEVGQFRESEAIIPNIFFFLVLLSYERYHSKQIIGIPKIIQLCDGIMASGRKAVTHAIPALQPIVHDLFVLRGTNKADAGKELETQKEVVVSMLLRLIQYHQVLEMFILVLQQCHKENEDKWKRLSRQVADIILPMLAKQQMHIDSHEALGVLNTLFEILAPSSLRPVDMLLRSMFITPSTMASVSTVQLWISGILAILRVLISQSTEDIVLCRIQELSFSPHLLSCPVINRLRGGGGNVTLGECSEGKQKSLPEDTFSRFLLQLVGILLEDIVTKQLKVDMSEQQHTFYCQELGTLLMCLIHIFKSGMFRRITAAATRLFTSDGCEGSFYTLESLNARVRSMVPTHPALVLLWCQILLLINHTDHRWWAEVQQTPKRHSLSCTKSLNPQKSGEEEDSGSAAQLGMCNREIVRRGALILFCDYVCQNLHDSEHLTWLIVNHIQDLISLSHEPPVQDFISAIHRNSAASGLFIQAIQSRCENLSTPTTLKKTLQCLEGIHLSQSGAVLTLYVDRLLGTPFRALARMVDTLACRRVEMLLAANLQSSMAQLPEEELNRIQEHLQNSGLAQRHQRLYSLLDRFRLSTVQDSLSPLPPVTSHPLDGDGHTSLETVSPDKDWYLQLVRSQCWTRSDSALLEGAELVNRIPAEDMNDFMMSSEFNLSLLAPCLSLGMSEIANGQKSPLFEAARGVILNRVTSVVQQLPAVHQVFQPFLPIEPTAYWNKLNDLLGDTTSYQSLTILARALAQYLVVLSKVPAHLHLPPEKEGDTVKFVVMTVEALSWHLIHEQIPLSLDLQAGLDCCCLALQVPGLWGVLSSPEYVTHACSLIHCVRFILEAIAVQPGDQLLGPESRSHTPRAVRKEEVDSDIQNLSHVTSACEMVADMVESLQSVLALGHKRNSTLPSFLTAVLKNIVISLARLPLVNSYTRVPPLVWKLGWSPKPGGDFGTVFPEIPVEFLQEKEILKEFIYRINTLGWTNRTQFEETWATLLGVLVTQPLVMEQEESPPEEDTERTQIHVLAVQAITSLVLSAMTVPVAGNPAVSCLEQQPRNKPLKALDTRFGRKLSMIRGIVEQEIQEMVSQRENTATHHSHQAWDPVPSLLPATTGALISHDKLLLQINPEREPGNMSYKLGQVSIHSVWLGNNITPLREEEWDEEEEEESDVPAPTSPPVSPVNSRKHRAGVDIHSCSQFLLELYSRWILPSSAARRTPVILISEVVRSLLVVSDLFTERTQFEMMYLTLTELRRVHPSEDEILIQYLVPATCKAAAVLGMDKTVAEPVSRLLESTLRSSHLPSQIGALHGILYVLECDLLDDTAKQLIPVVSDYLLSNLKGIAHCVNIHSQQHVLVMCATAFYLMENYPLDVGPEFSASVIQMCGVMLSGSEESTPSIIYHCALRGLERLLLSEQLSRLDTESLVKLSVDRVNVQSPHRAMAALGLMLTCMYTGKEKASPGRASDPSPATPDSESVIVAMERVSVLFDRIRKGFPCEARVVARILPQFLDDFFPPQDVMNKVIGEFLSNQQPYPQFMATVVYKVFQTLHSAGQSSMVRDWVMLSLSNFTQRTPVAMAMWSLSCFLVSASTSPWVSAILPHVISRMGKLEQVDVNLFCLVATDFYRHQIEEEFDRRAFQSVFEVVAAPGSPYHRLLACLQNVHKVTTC

Molecular target: TAR DNA-Binding Protein (TARDBP/TDP-43) (mouse (endogenous in mouse brain)) (UniProt Q921F2)
Experiment: co-IP

- binding: binds
Substance: mouse full-length HTT (FL-HTT) (from UniProt P42859 1-3119)
